Measurements reported in patent publication US20110034385A1, “Compositions Useful for the Treatment of Diabetes and Other Chronic Disorder” (NATIONAL INSTITUTE OF IMMUNOLOGY, priority 2008, published 2011).
Part of at least one peptide drawing is inferred or uncertain, most often the ends.

Experiments:
[1] = test system: ovariectomized (OVX) rats; assay: Osteoporosis model in ovariectomized rats
[2] = In vitro release of calcitonin from supramolecular calcitonin assembly; type: physicochemical; details: 2% mannitol, dialysis through a membrane, absorbance at 275 nm
[3] = CT intermittently, SCA continuously
[4] = OVX rats, 8 weeks, continuous, Alzet osmotic minipump (MP)

SMILES: CC(C)C[C@H](NC(=O)[C@H](CCCCN)NC(=O)CNC(=O)[C@H](CC(C)C)NC(=O)[C@@H](NC(=O)[C@@H]1CSSC[C@H](N)C(=O)N[C@@H](CO)C(=O)N[C@@H](CC(N)=O)C(=O)N[C@@H](CC(C)C)C(=O)N[C@@H](CO)C(=O)N[C@@H]([C@@H](C)O)C(=O)N1)C(C)C)C(=O)N[C@@H](CO)C(=O)N[C@@H](CCC(N)=O)C(=O)N[C@@H](CCC(=O)O)C(=O)N[C@@H](CC(C)C)C(=O)N[C@@H](Cc1c[nH]cn1)C(=O)N[C@@H](CCCCN)C(=O)N[C@@H](CC(C)C)C(=O)N[C@@H](CCC(N)=O)C(=O)N[C@H](C(=O)N[C@@H](Cc1ccc(O)cc1)C(=O)N1CCC[C@H]1C(=O)N[C@@H](CCCNC(=N)N)C(=O)N[C@H](C(=O)N[C@@H](CC(N)=O)C(=O)N[C@H](C(=O)NCC(=O)N[C@@H](CO)C(=O)NCC(=O)N[C@H](C(=O)N1CCC[C@H]1C(N)=O)[C@@H](C)O)[C@@H](C)O)[C@@H](C)O)[C@@H](C)O [SCA]
- time symptoms of osteoporosis treated ([1]; Alzet pump): up to 60 days
- mean body weight compared with vehicle-treated OVX rats [1, 3]: significantly decreased
- serum phosphorus concentration compared with vehicle treatment [1, 3]: significantly decreased
- Body Wt. [1, 4]: 276 ± 0.9
- Calcium (serum) [1, 4]: 9.3 ± 0.3
- Phosphorus (serum) [1, 4]: 6.0 ± 0.6
- mean serum calcium levels compared with all other groups ([1]; rat, in vivo): significantly lower
- in vitro release of calcitonin [2]: continuous release
